A word on the AC50: it is the concentration at which the activity in the assay is half-maximal.

A short description of assay [1]: Validation of Assay for Modulators of Lamin A Splicing (AID 1459). Conditions: Lamin A splicing dual RFP/GFP fluorescence reporter, ratio. An outline of the steps:
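Readout: ratio of GFP (500-530 nm) to RFP (575-640 nm) total object intensity by 488 nm laser-scanning cytometry after 48 hrs. Cells were HeLa S3 clones carrying lamin A-EGFP minigene plus DsRed2 viability reporter; vehicle 0.5% DMSO final.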

The nature of assay [2]: qHTS Assay for Lipid Storage Modulators (AID 1519). Conditions: Drosophila S3 cells, BODIPY lipid droplet/cell ratio, laser cytometry, cells loaded with oleic acid. An outline of the steps: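 Cells seeded at 5,000 per well were treated with compounds over a concentration series and loaded with oleic acid (400 uM, as added). Lipid droplet fluorescence (488 nm excitation, 500-530 nm channel) was read by laser-scanning cytometry and normalized to 20 uM Triacsin C.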

A short description of assay [3]: qHTS Assay for Modulators of Human Peripheral Myelin Protein 22 (PMP22) Expression/Activity (AID 1967). Conditions: Cell-based PMP22 reporter, dual-color luciferase ratio. In outline: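 Mouse MSC80 Schwann line, Pmp22 promoter–CBG68 reporter, EF-alpha–CBR internal control. 24h compound exposure, 37 °C/5% CO2, DMEM + 10% FBS. Readout: corrected green/red luminescence ratio, normalized to untreated cells; concentration-response curves fitted and classified.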
(In general: qHTS replaces the single test concentration by a dilution series.)

The nature of assay [4]: qHTS Validation Assay to Find Inhibitors of Chronic Active B-Cell Receptor Signaling (AID 485345). Conditions: ABC-DLBCL cells, chronic BCR signaling reporter. In outline:
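TMD8 ABC-DLBCL cells stably carrying doxycycline-inducible IkappaBalpha–green luciferase fusion plus unfused red luciferase; compounds 46 uM to 3 nM, 4 h at 37C with doxycycline. Corrected green/red luminescence ratio normalized to 10 uM MG-132 and basal cell wells; curves fitted.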

Assay [5] in a line: A High-Content qHTS Against Drug Library for the Identification of Small Molecules that Inhibit DYT1 Early Onset Primary Dystonia-Associated Cell Pathology (AID 1645839). Conditions: HEK293 Flp-In EGFP-delE TorsinA, punctate imaging, 48 h; measured here: cell count cytotoxicity. In outline: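 Flp-In T-REx 293 cells with tetracycline-inducible EGFP-delE hTOR1A (WT EGFP-hTOR1A as reference), 800 cells/well; compound added with tetracycline, 48 h at 37 C. Fixed, permeabilized cells imaged; %pathology (punctate TorsinA) primary, cell count counterscreen.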

Assay [6] can be described thus: qHTS for identification of novel therapeutic agents for treatment of microphthalmiaassociated transcription factor (MiT) renal cell carcinoma (RCC) (AID 1963991).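 For z-score: curves scaled with 100% = DMSO viability and 0% = empty wells.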 Conditions: CellTiter-Glo, 48 h; for z-score: stronger effect = lower value. In outline: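 UOK109/UOK124/UOK145 (TFE3 fusions, three partners); 500 cells/well; MIPE v4.0, 1912 cpds, 11 conc.; 48 h, 37 C; CellTiter-Glo, 15 min RT; lum. Norm.: DMSO 100%, empty 0%.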

Assay [7] is described as follows: Nrf2 qHTS screen for inhibitors: Validation (AID 493153). Conditions: A549 ARE-Fluc reporter, 18-24 h; AC50: CellTiter-Fluor fluorescence read, measured here: cytotoxicity CellTiter-Fluor AC50; viability change: measured here: cytotoxicity max response. In outline: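 Dose-response validation uses reporter A549 cells with firefly luciferase under an antioxidant response element. Compounds stay on cells 18-24 h at 37°C, and luminescence indicates Nrf2-driven transcription.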

Where [8] appears, read: measured here: cell count channel max response.
Where [9] appears, read: measured here: cell number channel AC50.
[10] abbreviates: measured here: lipid (BODIPY) channel AC50.
[11] abbreviates: measured here: lipid channel max response.
Setting [12] is: measured here: green reporter channel AC50, mouse Pmp22 promoter in mouse Schwann cells.
Setting [13] is: measured here: red reporter channel AC50, EF-alpha promoter control reporter in MSC80 mouse Schwann cells.
The mark [14] stands for this setting: measured here: CBR control luciferase (viability counter).
Where [15] appears, read: TFE3-RCC UOK109 viability, measured here: UOK109 Z-AUC.
Setting [16] is: TFE3-RCC viability, measured here: UOK124 Z-AUC.
Setting [17] is: TFE3-RCC viability, measured here: UOK124 cell viability.
The mark [18] stands for this setting: TFE3-RCC viability, measured here: UOK145 Z-AUC.
Setting [19] is: TFE3-RCC viability, measured here: UOK145 cell viability.

Values joined by “and” are separate entries in the source; they are usually repeats but may differ in a detail not shown here. Equal entries are not always repeated. Some of the results follow. The main result of the screen is listed elsewhere. These columns were measured beside it and carry no call. Compounds called inactive in the main read-out are mostly missing here. Words in brackets tell the shape of the fitted curve; partial curves, single points and poor fits give uncertain potencies.

`CC(C)(CO)Cc1cc(C(C)(C)C)c(O)c(C(C)(C)C)c1`: the AC50 was 35.5 µM [falling, single point] in assay [1] (measured here: GFP channel); 5.62 µM [rising, full curve, poor fit] in assay [2] (setting [9]); 6.31 µM [rising, full curve, poor fit] in assay [2] (setting [10]); 95.3 µM [falling, single point] in assay [3] (setting [12]); 95.3 µM [falling, single point] in assay [3] (setting [13]). For the same compound, the max response in assay [2] (setting [8]) worked out at 32.5%; in assay [2] (setting [11]) it was 39.2%.

On to `CCCCCCCCCCCCCCCC(=O)OC(CC(=O)O)C[N+](C)(C)C` (stereo not drawn), for which the AC50 in assay [1] (measured here: GFP channel) is 35.5 µM [falling, single point]; in assay [1] (measured here: RFP channel), 22.4 µM [falling, partial curve, poor fit]; in assay [4] (setting [14]), 9.2 µM [rising, partial curve, poor fit].

Regarding `C[C@]12C[C@H](O)C3[C@@H](CCC4=CC(=O)CC[C@@]43C)[C@@H]1CC[C@@H]2C(=O)CO` (stereo partly drawn), in assay [1] (measured here: GFP channel), the AC50 is 31.6 µM [rising, single point]. The max response in assay [2] (setting [8]) stood at 54.2%; in assay [2] (setting [11]), 54.6%.

In the case of `NC(=O)NO`, the AC50 in assay [1] (measured here: GFP channel) was 11.2 µM [falling, partial curve]; in assay [2] (setting [9]), 1.78 µM [falling, full curve, poor fit]; in assay [2] (setting [10]), 1.78 µM [falling, full curve, poor fit]; in assay [3] (setting [13]), 47.8 µM [falling, partial curve]; in assay [5], 35.5 µM [falling, single point]; in assay [6] (setting [17]), 0.935 µM [falling, full curve]. The AC50 in assay [6] (setting [19]) was 0.833 µM [falling, full curve]. Also, the figures for the max response in assay [2] (setting [8]) and in assay [2] (setting [11]) were 17.3% and 16%, respectively. The z-score in assay [6] (setting [15]) was -0.868; in assay [6] (setting [16]) it was -0.218; in assay [6] (setting [18]) it was -1.75.

For the compound `CCC1(O)CC2CN(CCc3c([nH]c4ccccc34)[C@@](C(=O)OC)(c3cc4c(cc3OC)N(C=O)C3[C@]45CCN4CC=C[C@@](CC)([C@@H](OC(C)=O)[C@]3(O)C(=O)OC)[C@H]45)C2)C1` (stereo partly drawn), the AC50 in assay [1] (measured here: GFP channel) is 0.02 µM [falling, full curve, poor fit]; in assay [1] (measured here: RFP channel), 0.0447 µM [falling, full curve, poor fit]; in assay [3] (setting [12]), 84.9 µM [falling, single point]; in assay [3] (setting [13]) it was 95.3 µM [falling, single point]; in assay [4] (measured here: CBG/CBR ratio read-out), 0.731 µM [falling, full curve]; in assay [4] (setting [14]), 1.84 µM [rising, full curve]. Besides, in assay [7], the AC50 is 1.3 µM [falling, full curve]. For the same compound, the viability change in assay [7] was -30%.

As for `O=C1NC(=O)C(c2ccccc2[N+](=O)[O-])=C1Nc1ccc(O)c(Cl)c1`, the AC50 in assay [1] (measured here: GFP channel) was 14.1 µM [rising, partial curve, poor fit]; in assay [2] (setting [9]), 15.8 µM [rising, full curve, poor fit]; in assay [2] (setting [10]), 20 µM [rising, partial curve, poor fit]; in assay [3] (setting [12]), 33.8 µM [falling, partial curve, poor fit]; in assay [3] (setting [13]) it was 60.1 µM [falling, partial curve, poor fit]; in assay [6] (setting [19]), 1.66 µM [falling, partial curve, poor fit]. Moreover, the figures for the max response in assay [2] (setting [8]) and in assay [2] (setting [11]) were 44.7% and 70.3%, respectively. The z-score in assay [6] (setting [15]) was -0.627; in assay [6] (setting [16]) it was 0.456; in assay [6] (setting [18]) it was -0.739.

For the compound `CC(C)[N+](C)(CCOC(=O)C1c2ccccc2Oc2ccccc21)C(C)C`, the AC50 in assay [1] (measured here: GFP channel) is 22.4 µM [rising, single point]; in assay [2] (setting [9]), 39.8 µM [rising, single point]; in assay [2] (setting [10]) it was 39.8 µM [rising, single point]; in assay [3] (setting [12]), 5.36 µM [rising, full curve, poor fit]. Further, the max response was 33% and 32.5% in assay [2] (setting [8]); 55.4% and 32.7% in assay [2] (setting [11]).

On to `CN1CCN(CC/C=C2/c3ccccc3Sc3ccc(S(=O)(=O)N(C)C)cc32)CC1`, for which the AC50 in assay [1] (measured here: GFP channel) was 12.6 µM [falling, single point]. For the same compound, the max response in assay [2] (setting [8]) was determined as 47.9%; in assay [2] (setting [11]), 52.3%.

For `Clc1nccc2c1ccc1ccccc12`, the concentration at half-maximal activity (AC50) in assay [1] (measured here: GFP channel) was 12.6 µM [rising, single point]; in assay [1] (measured here: RFP channel) it was 12.6 µM [rising, single point]; in assay [3] (setting [12]), 1.07 µM [rising, full curve, poor fit]. The viability change in assay [7] amounted to 5.73%.

Regarding `CCCCCCCC/C=C\CCCCCCCC(=O)NCCO`, the AC50 in assay [1] (measured here: GFP channel) is 31.6 µM [rising, single point]; in assay [2] (setting [9]), 39.8 µM [rising, partial curve, poor fit]; in assay [2] (setting [10]) it was 35.5 µM [rising, partial curve, poor fit]; in assay [3] (setting [12]), 95.3 µM [falling, single point]. Besides, the max response in assay [2] (setting [8]) was 56%; in assay [2] (setting [11]), 57.5%.

As for `CC(C)C[C@H](NC(=O)[C@@H](O)[C@H](N)Cc1ccccc1)C(=O)O`, the AC50 in assay [1] (measured here: GFP channel) was 2.82 µM [rising, full curve, poor fit]; in assay [3] (setting [13]) it was 15.1 µM [rising, partial curve]; in assay [6] (setting [17]) it was 26.4 µM [falling, partial curve]; in assay [6] (setting [19]) it was 29.6 µM [falling, single point]. For the same compound, the max response in assay [2] (setting [8]) worked out at 59.8%; in assay [2] (setting [11]), 58.4%. The viability change in assay [7] is -18.9%. Also, the z-score worked out at 0.828 in assay [6] (setting [15]), 0.283 in assay [6] (setting [16]) and 0.278 in assay [6] (setting [18]).
